The values below come from PubChem BioAssay AID493014 (National Center for Advancing Translational Sciences (NCATS), 2011).

This assay is described as follows: qHTS Assay to Find Inhibitors of Chronic Active B-Cell Receptor Signaling. Particulars: ABC-DLBCL IkBa-CBG/CBR reporter, luminescence ratio (green luciferase fused to IkBa over red control in TMD8 lymphoma cells), 4 h. An outline of the steps:
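Doxycycline induced both beetle luciferases in TMD8 lymphoma cells; IKK-driven degradation limits the IkappaBalpha-fused green signal, while red luminescence normalises for cell number and nonspecific effects. Compounds tested up to 46 uM, 4 hrs.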

Where [1] appears, read: measured here: CBR red luminescence, cell number.
Where [2] appears, read: measured here: IkBa-CBG green luminescence.

Some of the results follow. These are further read-outs of the screen, such as a control signal, another cell line or another target. No call is given for them. Most of these compounds were active or inconclusive in the main read-out, so they are no random draw. Words in brackets tell the shape of the fitted curve; partial curves, single points and poor fits give uncertain potencies.

As to `O=C(CSc1nc(-c2ccccc2)c(-c2ccccc2)[nH]1)NCC1CCCO1` (configuration not stated), the AC50 under setting [1] is 6.31 µM [falling, partial curve, poor fit]. For the compound `CC(C)Cc1cc(C(=O)Nc2cc(Br)ccc2O)no1`, the AC50 under setting [1] was 2.91 µM [rising, partial curve]. As for `COc1ccc(NC(=O)COC(=O)c2ccc3ccccc3n2)c(OC)c1`, the AC50 under setting [1] is 1.84 µM [rising, partial curve, poor fit].

Regarding `O=C(Nc1cccs1)Nc1ccccc1Cl`, the AC50 under setting [1] was 29.1 µM [falling, single point]. The same measure, in the same setting: the figure for `Cc1nn(-c2ccccc2)c(N2CCCC2)c1/C=N/NC(=S)Nc1ccccc1F` is 18.4 µM [falling, single point]; for `O=C(/C=C/c1ccc(N2CCOCC2)cc1)c1ccccc1` it is 35.5 µM [falling, single point]; for `CCS(=O)(=O)NCC(c1ccco1)N1CCN(c2ccc(OC)cc2)CC1` (configuration not stated) it is 35.5 µM [rising, single point].

Consider `C/C(CC(=O)Nc1ccc(Cl)c(C(F)(F)F)c1)=N\NC(=O)c1ccccc1O`, for which, under setting [1], the AC50 is 2.31 µM [falling, full curve].

Turning to `COc1cc2c3c(c1OC)C1(C=CC(=O)C=C1)CC3N(C(C)=O)CC2` (configuration not stated), the AC50 under setting [1] is 3.26 µM [rising, partial curve, poor fit]. Same read-out and setting: to `Cc1cc(/C=C\c2ccc3cc(N(C)C)ccc3[n+]2C)c(C)n1-c1ccccc1` belongs 25.9 µM [falling, single point]; to `O=C(COc1ccc(Br)cc1Cl)N1CCN(c2ccccn2)CC1`, 12.6 µM [rising, partial curve, poor fit]; to `O=C(c1ccccc1)c1nnc(-c2ccncc2)o1`, 29.1 µM [falling, single point]. Take `COc1ccc(C(=O)Nc2cc(S(=O)(=O)N3CCCC3)ccc2Cl)cc1`: under setting [1], the AC50 was 20.6 µM [falling, single point]. For the compound `Cc1noc(C)c1CN1C(=O)c2ccccc2C1=O`, the AC50 under setting [1] was 12.6 µM [rising, single point]. For `CC1=CC(C)(C)N(C(=O)CN2C(=O)CCC2=O)c2ccccc21`, the AC50 under setting [1] was 10 µM [rising, partial curve, poor fit].

For `N=c1c2c(-c3ccccc3)c(-c3ccccc3)n(Cc3ccco3)c2ncn1Cc1ccco1`, the AC50 under setting [1] was 35.5 µM [falling, single point].

`Cc1onc(-c2ccccc2)c1C(=O)NC(=S)NNC(=O)c1ccncc1`: the AC50 under setting [1] is 16.4 µM [falling, single point]. Still for that read-out and setting: to `O=C(COc1ccccc1F)N/N=C1\CCCc2ccccc21` belongs 0.58 µM [rising, full curve, poor fit]; to `CCCCc1ccc(NC(=O)COc2cccc3c(=O)n(C)ccc23)cc1`, 8.91 µM [rising, partial curve, poor fit]. Regarding `O=C(CCC(=O)Nc1ccc(F)cc1)N/N=C/c1ccc(O)cc1O`, under setting [1], the AC50 was 3.98 µM [falling, full curve]. Same read-out and setting: the figure for `COc1cccc(NC(=O)CCC(=O)N2CC(C)Oc3ccc(C)cc32)c1` (configuration not stated) is 6.31 µM [falling, full curve, poor fit].

For `COC(=O)c1cc2sc(Cl)cc2n1CC(=O)NCCC(C)C`, under setting [1], the AC50 is 20.6 µM [rising, partial curve, poor fit]. Same read-out and setting: to `CCOC(=O)Cn1cnc2c(nnn2-c2cccc(Cl)c2)c1=O` belongs 11.2 µM [rising, partial curve]; to `Cc1ccc(NC2=NC(=S)N(CC#N)C23CCCCC3)cc1`, 23.1 µM [rising, single point].

Regarding `O=C(O)c1ccc(COc2ccc3c(c2)CCC3)cc1`, the AC50 under setting [1] was 11.2 µM [falling, partial curve]. Same read-out and setting: the figure for `COc1cc(/C=C2/SC(=Nc3ccc(O)cc3)NC2=O)ccc1O` is 0.562 µM [falling, full curve, poor fit]; for `CCN(CC)C(=O)CSc1nc(O)c(Cc2ccccc2)c(=O)n1-c1ccccc1C` it is 0.316 µM [falling, full curve]; for `Cn1c(CCN2CCCCC2)nc2cc(NS(=O)(=O)c3ccc(Cl)cc3)ccc21` it is 2.82 µM [falling, partial curve, poor fit]. On to `COc1cc(/C=C/C(=O)OCC(=O)c2ccccc2)cc(OC)c1OC`, for which the AC50 under setting [1] was 18.4 µM [rising, partial curve].

In the case of `Cc1ccc(NC(=O)CCNS(=O)(=O)c2cccc3nsnc23)cc1`, under setting [1], the AC50 was 7.31 µM [rising, partial curve, poor fit].

In the case of `O=C(O)C1CC(=O)N(c2ccc(OCc3ccc(Cl)cc3Cl)cc2)C1` (configuration not stated), the half-maximal activity concentration (AC50) under setting [1] is 13 µM [falling, partial curve]. `CCOC(=O)Cc1csc(NC(=S)NC(=O)c2cc(OC)cc(OC)c2)n1`: the AC50 under setting [1] was 14.1 µM [falling, partial curve] and the half-maximal activity concentration (AC50) under setting [2] is 17.8 µM [falling, single point]. As for `CCOc1ccc(/C=N/NC(=O)c2nnn(-c3nonc3N)c2-c2ccc(OCC)cc2)cc1`, the AC50 under setting [1] is 0.00517 µM [rising, full curve, poor fit]. The same measure, in the same setting: to `CCC1c2ccc(C)n2CCN1C(=O)Nc1cc(Cl)ccc1OC` (configuration not stated) belongs 8.2 µM [rising, partial curve, poor fit]. Same read-out and setting: the figure for `O=C(NNC(=O)C1CCCO1)c1ccccc1Cl` (configuration not stated) is 29.1 µM [rising, single point]; for `Cc1ccc2oc3c(c(=O)c2c1)C(c1cccc(Cl)c1)N(CCCN1CCOCC1)C3=O` (configuration not stated) it is 3.66 µM [rising, single point]. On the same count and under the same terms, to `CC(=O)c1cc2c(cc1NC(=O)c1cc(C)nn1-c1ccccc1)OCO2` belongs 6.51 µM [rising, partial curve, poor fit]; to `Cc1onc(-c2ccccc2)c1C(=O)Oc1cccnc1`, 4.61 µM [falling, single point].

Take `Cc1nc(SCCC(=O)O)c2ccccc2n1`: the AC50 under setting [1] was 29.1 µM [rising, single point]. Still for that read-out and setting: to `Cc1ccccc1OCCNc1cc(N2CCCCC2)ccc1[N+](=O)[O-]` belongs 10 µM [rising, partial curve]; to `CN(C)c1ccc(N=Nc2ccccc2Br)cc1`, 0.1 µM [rising, full curve, poor fit]; to `O=C(O)c1ccc(/C=C2\CCCc3c2nc2ccccc2c3C(=O)O)cc1`, 11.2 µM [falling, partial curve, poor fit]. The same measure, in the same setting: the figure for `CCOCCSC1=C(C#N)C(c2cccs2)C(C(C)=O)=C(C)N1` (configuration not stated) is 2.91 µM [rising, single point]; for `Cc1ncc(CO)c(/C=N/NC(=O)c2cc(Br)ccc2O)c1O` it is 1.12 µM [falling, full curve, poor fit]; for `Nc1cc(=O)[nH]c(SCC(=O)Nc2cc([N+](=O)[O-])ccc2Cl)n1` it is 1.58 µM [rising, full curve, poor fit]. Same read-out and setting: the figure for `CCCCn1nc(NC(=O)c2cccs2)c2cc3ccccc3nc21` is 11.2 µM [falling, partial curve].

Take `Clc1cccc(OCc2nnc(-c3ccccc3Br)o2)c1`: the AC50 under setting [1] was 1 µM [rising, partial curve, poor fit]. Still for that read-out and setting: the figure for `N/C(=N\OC(=O)c1cccc(Br)c1)c1ccccn1` is 7.94 µM [falling, partial curve, poor fit]; for `COc1ccc(Nc2ncnc3sc(C)cc23)c(OC)c1` it is 3.55 µM [rising, full curve]; for `COc1ccc(NC(=O)N2CCc3ccccc32)cc1` it is 8.2 µM [falling, partial curve, poor fit]. Consider `O=C(Nc1ccccc1Oc1cccnc1)C1CCCN(Cc2cccc(Cl)c2)C1` (configuration not stated), for which, under setting [1], the AC50 was 15.8 µM [falling, single point].

As to `O=C(Nc1cccc(Cl)c1)c1cc(F)cc2c1OCOC2`, the AC50 under setting [1] was 0.355 µM [rising, partial curve, poor fit]. As for `CC(C)CNS(=O)(=O)c1ccc(C(=O)Nc2ccc3c(c2)OCCO3)cc1`, the AC50 under setting [1] is 3.55 µM [falling, single point]. On the same count and under the same terms, to `CC(C)c1ccccc1OCC(O)CN1CCN(S(=O)(=O)c2ccc([N+](=O)[O-])cc2)CC1` (configuration not stated) belongs 1.78 µM [falling, partial curve, poor fit]. Turning to `CCNC(=S)N/N=C(\C)c1cccc(OC)c1`, the AC50 was 35.5 µM [falling, single point] under setting [1] and 17.8 µM [falling, partial curve] under setting [2]. `CN1CCN(C(c2cccc(Br)c2)c2sc3nc(-c4ccco4)nn3c2O)CC1` (configuration not stated): under setting [1], the AC50 was 35.5 µM [rising, partial curve, poor fit].

In the case of `O=C(NCc1ccc(F)cc1)c1cnc2sccn2c1=O`, the AC50 under setting [1] was 9.2 µM [rising, partial curve, poor fit]. Still for that read-out and setting: the figure for `Cc1ccnc(NS(=O)(=O)c2ccc(N)cc2)n1` is 0.631 µM [rising, full curve].

As to `COc1ccc(C(=O)NC2CCCc3ccccc32)cc1Br` (configuration not stated), the AC50 under setting [1] was 2.82 µM [falling, partial curve, poor fit]. Same read-out and setting: to `CC(C)N(Cc1nc(-c2ccc(Cl)cc2)no1)C(=O)C12CC3CC(CC(C3)C1)C2` belongs 0.0731 µM [rising, full curve, poor fit]. The same measure, in the same setting: the figure for `Cn1c(N/N=C/c2c[nH]c3ccccc23)nc2ccccc21` is 7.08 µM [falling, partial curve, poor fit]; for `COc1cc(NC(=O)c2ccc3c(c2)OCO3)c2ncccc2c1` it is 1.46 µM [rising, full curve]; for `O=C(CSc1nnnn1C1CCCC1)Nc1cccc(NC(=O)c2ccco2)c1` it is 1 µM [falling, full curve]. As for `Cc1c(OC(C)C(=O)NC2CC(C)(C)NC(C)(C)C2)ccc2c3c(c(=O)oc12)CCC3` (configuration not stated), the concentration at half-maximal activity (AC50) under setting [1] was 0.708 µM [falling, partial curve, poor fit]. On to `COc1cc(C2c3c(-c4cc(Cl)c(C)cc4O)n[nH]c3C(=O)N2Cc2cccnc2)ccc1O` (configuration not stated), for which the AC50 under setting [1] was 25.1 µM [falling, single point].
